Source: US20200325236A1

How the values were obtained:
[1] = biological target: cynomolgus monkey 4-1BB protein (cynomolgus monkey); experiment: ELISA, cynomolgus monkey 4-1BB coated at 1 ug/mL
[2] = biological target: cynomolgus monkey 4-1BB protein (cynomolgus monkey); experiment: ELISA, plate coated with cynomolgus monkey 4-1BB according to paragraph 93 (sheet legend: 'Rhesus 4-1BB'), 1 ug/mL, HRP goat anti-human IgG, OD 450 nm

binding [1]: binds
binding [2]: binds
B1: ab1 chimeric antibody (anti-human 4-1BB antibody ab1) (antibody, human IgG1, V domains shown)
VH: QVQLQQSGAELVRPGTSVKISCKASGYAFTNYWLGWVKQRPGHGLEWIGDIYPGNGNSYYNEKFKGRATLTADKSSSTVYMQLSSLTSEDSVVYFCTRSSSYYRDVMDYWGQGTSVTVSS
VL: DIQMTQSPASLSASVGETVTITCRASENIYSYLVWYQQKQGKSPQLLVYNAKTLAEGVSSRFSGSGSGTQFSLKINSLQPEDFGSYYCQHHYGTPLTFGAGTKLELKR

These are yes or no findings as the source states them, for the method shown. A result given as binding can be weak or reduced; the word gives no strength.
